Measurements reported in PubChem BioAssay AID1224826 (NIAID, 2016).
Test: 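Regulators of Tlr4 signalling leading to Tnf-alpha expression in macrophages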 (primary screen). System: RAW264.7 G9 macrophages from mouse bearing reporters for p65 (GFP) and the Tnf promoter (mCherry). Reagents: siRNA pool against mouse genes, 100 nM. Timing: 16 h of LPS stimulation, after 2 days of siRNA transfection. Challenge: bacterial lipopolysaccharide (Salmonella minnesota R595), 10 ng/ml. Measured: 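Nuclear mCherry signal of the Tnf promoter reporter measured by imaging after background removal, scaled to each plate median and turned into robust z-scores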. Reading the numbers: Tnf reporter robust z-score: higher = stronger Tnf promoter reporter signal after LPS. Call rule: 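Called active when robust z-score is at most -1.3, matching the median of the Tlr4 knock-down control, or over 3; control wells and wells with under 50 cells never active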. Meaning of the calls: active = Tnf reporter clearly lowered or raised; inactive = no clear change in Tnf reporter.
In all, the deposit lists about 17,000 reagents; this is a random part of them. About 1,110 of them (6.6%) count as active. 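Active means lowered or raised reporter signal; replicate intensities are raw and not normalised per plate.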 The numbers tell different reagents against one gene apart. Further read-outs or replicates are left out here. No sequences are given here.

Target gene	pool no.	Tnf reporter robust z-score	fewer than 50 cells in well	outcome
Evl (GeneID 14026)	1	-1.49	enough cells in well	active
Olig1 (GeneID 50914)	1		fewer than 50 cells per well; well left out of calls	inactive
Or1n1 (GeneID 258944)	1	-0.7	enough cells in well	inactive
Psmc5 (GeneID 19184)	1		fewer than 50 cells per well; well left out of calls	inactive
Akt2 (GeneID 11652)	1	-0.63	enough cells in well	inactive
Btnl9 (GeneID 237754)	1	3.01	enough cells in well	active
4930579C12Rik (GeneID 319213)	1	-0.95	enough cells in well	inactive
Khdrbs2 (GeneID 170771)	1	0.46	enough cells in well	inactive
Ear4 (GeneID 53877)	1		fewer than 50 cells per well; well left out of calls	inactive
Clpx (GeneID 270166)	1	-0.75	enough cells in well	inactive
Aspm (GeneID 12316)	1	1.87	enough cells in well	inactive
Exoc7 (GeneID 53413)	1		fewer than 50 cells per well; well left out of calls	inactive
Rac1 (GeneID 19353)	1	0.84	enough cells in well	inactive
Rhbdf1 (GeneID 13650)	1	0.1	enough cells in well	inactive
Josd2 (GeneID 66124)	1	2.48	enough cells in well	inactive
4921509C19Rik (GeneID 381393)	1	0.38	enough cells in well	inactive
Wwp2 (GeneID 66894)	1	-0.01	enough cells in well	inactive
Icam2 (GeneID 15896)	1	0.58	enough cells in well	inactive
Mon2 (GeneID 67074)	1		fewer than 50 cells per well; well left out of calls	inactive
Rsl24d1 (GeneID 225215)	1	2.03	enough cells in well	inactive
Moap1 (GeneID 64113)	1	0.2	enough cells in well	inactive

Reagents above with an active call:
Target gene	pool no.	Tnf reporter robust z-score	fewer than 50 cells in well	outcome
Evl (GeneID 14026)	1	-1.49	enough cells in well	active
Btnl9 (GeneID 237754)	1	3.01	enough cells in well	active

Further entries follow.
Target gene	pool no.	Tnf reporter robust z-score	fewer than 50 cells in well	outcome
Pip5kl1 (GeneID 227733)	1	0.46	enough cells in well	inactive
Xrcc5 (GeneID 22596)	1	0.07	enough cells in well	inactive
Plekhm1 (GeneID 353047)	1	1.7	enough cells in well	inactive
Ksr1 (GeneID 16706)	1	-0.17	enough cells in well	inactive
Zmynd19 (GeneID 67187)	1	0.65	enough cells in well	inactive
Zfhx3 (GeneID 11906)	1	0.7	enough cells in well	inactive
Prdx3 (GeneID 11757)	1	0.08	enough cells in well	inactive
Rps6ka2 (GeneID 20112)	1	1.94	enough cells in well	inactive
Cpa6 (GeneID 329093)	1	1.5	enough cells in well	inactive
Hdac10 (GeneID 170787)	1	0.72	enough cells in well	inactive
Ryr1 (GeneID 20190)	1	-0.13	enough cells in well	inactive
Hsd17b12 (GeneID 56348)	1	-0.26	enough cells in well	inactive
Or52x1 (GeneID 259072)	1	0.36	enough cells in well	inactive
Vwa5b2 (GeneID 328643)	1	1.79	enough cells in well	inactive
Vwa5b2 (GeneID 328643)	2	1.6	enough cells in well	inactive
Zdhhc17 (GeneID 320150)	1	-1.11	enough cells in well	inactive
Cdc42ep5 (GeneID 58804)	1	-0.24	enough cells in well	inactive
BC053071	1	0.74	enough cells in well	inactive
Spsb2 (GeneID 14794)	1	0.03	enough cells in well	inactive
